# Reference: PubChem BioAssay AID2685 (National Center for Advancing Translational Sciences (NCATS), 2010)
# The other results are listed elsewhere or left out. The main result of the screen is listed elsewhere. These columns were measured beside it and carry no call. Compounds called inactive in the main read-out are mostly missing here. Potencies come from curve fits of mixed quality, noted in brackets.
# Assay: qHTS Assay for Lipid Storage Modulators in Drosophila S3 Cells;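 on cell number change: cells counted by Cell Tracker Red CMTPX staining in the red channel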
# Settings: BODIPY lipid droplet fluorescence, 18-24 h; for cell number change: measured here: cell count max response, cells fed with added oleic acid
# Procedure, shortened: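 Drosophila S3 cells loaded with oleic acid (400 uM, as added) and compounds at several concentrations; lipid droplets imaged by 488-nm laser-scanning cytometry, 500–530 nm intensity and object ratio to cell channel. Percent activity normalized to 20 uM Triacsin C.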
# [1] = measured here: lipid fluorescence (Fed channel) AC50, cells fed with added oleic acid
# [2] = measured here: cell number channel AC50, cells fed with added oleic acid
SMILES,cell number change [%],AC50 [1],AC50 [2]
O=C(NCc1ccccc1)c1ccc(=O)[nH]n1,2.37,,
Cc1ccccc1N(CC(=O)N/N=C/c1cc(C)n(-c2ccccc2C)c1C)S(C)(=O)=O,-2.8,"580 nM [falling, single point]",
OCC[C@@H]1C[C@@H](O)[C@H](O)[C@]2(OCCc3ccccc32)O1,27.8,"580 nM [rising, single point]",
O=C(NCC1CCCN1S(=O)(=O)c1cccs1)c1ccc(Cl)cc1 (configuration not stated),-18.9,,
CCc1c(C)c2ccc(OCC(=O)NCC3CCC(C(=O)O)CC3)cc2oc1=O (configuration not stated),0.581,"29100 nM [rising, single point]",
Cc1nc2ccc(NC(=O)N3CCCCC3)cc2s1,-3.5,,
CCN(CC(=O)Nc1cccc(OC)c1)C(=O)C1CCN(C(=O)Nc2ccccc2)CC1,-18.1,"1160 nM [rising, full curve, poor fit]","1160 nM [rising, full curve]"
CC(=O)c1ccc(N2CCN(c3ccc(S(=O)(=O)NCCN(C)C)cc3[N+](=O)[O-])CC2)cc1,-7.28,,
Cc1ccc(NC(=O)CSc2cccc3cccnc23)c(C)c1,-28.3,,"65.1 nM [falling, full curve, poor fit]"
COc1ccc(-c2ccc(SCC(=O)Nc3nnc(C)s3)nn2)cc1,68.9,,"20600 nM [rising, single point]"
CN(C)CCSc1nnc(-c2ccccc2)o1,-80.8,,"7310 nM [falling, partial curve]"
COc1cccc(C2=NN(C(=O)c3ccccc3)C(O)(C(F)(F)F)C2)c1 (configuration not stated),5.11,,"2060 nM [rising, partial curve, poor fit]"
Cc1cc(C)c(-c2csc(Cc3nc(-c4cc5ccccc5oc4=O)cs3)n2)cc1C,4.61,"92 nM [rising, full curve, poor fit]",
Cn1c(=O)c2cc(S(=O)(=O)N3CCC(c4ccccc4)CC3)ccc2n(C)c1=O,9.92,,
CCOC(=O)c1c(NC(=O)C2C3C=CC(C3)C2(C)C(=O)O)sc2c1CCCC2 (configuration not stated),0.718,"2590 nM [rising, full curve, poor fit]",
Cc1sc2nc(C(C)C)nc(SCC(=O)N3CCOCC3)c2c1C,18.8,"4.61 nM [rising, full curve, poor fit]",
O=C(N/N=C/c1ccc(N2CCCCC2)o1)C(O)(c1ccccc1)c1ccccc1,-3.45,"20600 nM [falling, partial curve, poor fit]",
COc1cc(/C=C/C(=O)O)cc(S(=O)(=O)Nc2ccc(S(=O)(=O)N3CCCCC3)cc2)c1OC,-6.34,"29100 nM [rising, single point]",
Cc1cc(C)c2[nH]c(C(=O)Nc3ccc4c(c3)OCO4)cc2c1,13.8,"1840 nM [rising, full curve, poor fit]",

# Reformatted: results already given
SMILES	cell number change [%]	AC50 [1]	AC50 [2]
O=C(NCc1ccccc1)c1ccc(=O)[nH]n1	2.37		
CCOC(=O)c1c(NC(=O)C2C3C=CC(C3)C2(C)C(=O)O)sc2c1CCCC2 (configuration not stated)	0.718	2590 nM [rising, full curve, poor fit]	

# Next part.

SMILES,cell number change [%],AC50 [1],AC50 [2]
Cc1ccc(S(=O)(=O)N(C)CC(=O)Oc2ccc(-c3nnco3)cc2)cc1,-4.17,"461 nM [rising, single point]",
CCCN1CCN(C(=O)c2cc(COc3ccc4ncccc4c3)on2)CC1,-17,"18400 nM [falling, single point]",
O=c1[nH]c2c(Br)cnc([N+](=O)[O-])c2[nH]1,-13.2,"1030 nM [falling, full curve]",
CC(C)N(c1ccccc1)c1ccc(NC(=O)C2CCCO2)cc1 (configuration not stated),-58.5,"29100 nM [falling, partial curve]","20600 nM [falling, single point]"
COC(=O)c1ccc(CN2CCCC(C(=O)Nc3cccc(-n4cnnn4)c3)C2)cc1 (configuration not stated),-3.76,,
CCOC(=O)c1c(O)cc(C)cc1Nc1ccccc1,127,"29100 nM [rising, single point]","29100 nM [rising, single point]"
CCOC(=O)Cn1c(=O)oc2cc(S(=O)(=O)N3CCCC(C)C3)ccc21 (configuration not stated),21.5,"29100 nM [rising, single point]",
Cc1cccn2c(=O)c3cc(C(=O)NC4CCCC4)c(=N)n(C4CCCC4)c3nc12,147,"6510 nM [rising, single point]","4610 nM [rising, full curve]"
Cc1nc(-c2cccc(NC(=O)COc3ccc(Cl)cc3)c2)cs1,-6.36,"1840 nM [rising, partial curve]",
C/C(=N\O)c1ccn(S(=O)(=O)c2ccc(Cl)cc2)c1,,"58 nM [falling, full curve, poor fit]",
Cc1ccc(S(=O)(=O)N2CCOCC2)cc1NC(=O)CNc1ccccc1N1CCCC1=O,138,,"18400 nM [rising, single point]"
CCCNC(=O)CN1C(=O)NC(Cc2c[nH]c3ccccc23)C1=O (configuration not stated),,"18400 nM [falling, single point]",
Nc1cc(C(=O)OCC(=O)NNC(=O)c2cccs2)ccc1Cl,11.3,"4.61 nM [rising, full curve, poor fit]",
CCOCCCNC(=O)c1ccc2c(=O)n(Cc3ccc(OC)cc3)c(=O)[nH]c2c1,,"4.11 nM [rising, full curve, poor fit]",
O=C(C[N+]12CC[N+](CC(=O)c3ccc(F)cc3)(CC1)CC2)c1ccc(F)cc1,48.2,,"29100 nM [rising, single point]"
COc1ccc(-c2nn(-c3ccccc3)cc2/C=N/Nc2ccccn2)cc1,-25.2,"29100 nM [falling, single point]",
CC(=O)c1cccc(NC(=O)CN2CCN(S(=O)(=O)/C=C/c3ccccc3)CC2)c1,-0.389,"820 nM [rising, full curve, poor fit]",
COc1ccc(CNC(=O)c2ccc(C)o2)cc1,7.11,"92 nM [rising, full curve, poor fit]","130 nM [rising, full curve, poor fit]"
COc1ccc(NC(=O)Cn2c(=O)n(-c3ccc(CC(=O)NCc4ccco4)cc3)c(=O)c3ccccc32)cc1,10.1,,"651 nM [rising, single point]"
